Experimental findings from ChEMBL document CHEMBL4513149, “CO-ADD screening of MMV (CH) - MMV compounds” (2021) are described below.

SMILES strings stand for the structures. This is one part of the list. Entries with a potency or affinity are not part of this list.

The term Inhibition denotes the change of the read-out against control, counted positive when it falls.

The experiment relates to Pseudomonas aeruginosa. To be noted: Concentration 20 uM; ASSAY_TEST Inhibition of Bacterial Growth; detection method Absorption (OD600); MEDIA CAMHB; plate type 384well; NBS; CORNING #3640; time 18 hr.
For `NC(=O)c1cc(Br)ccc1OCCOc1ccccc1`, the Inhibition stood at 5.76%.
With `CCOC(=O)c1cc(-c2csc(Nc3c(C)cc(C)cc3C)n2)on1` the figure was 10.94%.
For `Cc1cc2nc(NC(=O)C(C)(C)C)nc(Cl)c2n1Cc1ccc(Cl)cc1` the value was 0.95%.
Take `CN1CCCN(C(c2ccccc2)c2ccc(Cl)cc2)CC1` (configuration not stated) [HOMOCHLORCYCLIZINE]: the Inhibition was 6.82%.
On to `c1ccc(Oc2ccc(-c3cc(C4CCOCC4)[nH]n3)cc2)cc1`, for which the Inhibition turned out to be 26.87%.
As for `CCc1ccc(C(NCc2nc(N)nc(N(C)C)n2)C(C)C)cc1` (configuration not stated), the Inhibition is 14.01%.
Take `NCC(=O)N1CCn2c(nc(-c3ccccc3)c2Nc2ccc3c(c2)OCO3)C1`: the Inhibition is on record as 5.26%.
For the compound `Nc1nccc2ccc(Oc3ccncc3)cc12`, the Inhibition stood at 15.65%.
With `O=C(Nc1ccnc(-c2cccnc2)n1)c1cc(C(F)(F)F)cc(C(F)(F)F)c1` the figure was 16.26%; with `CCC(NC(=O)c1ccccc1NC(=O)c1ccc(C)cc1)C(=O)OC` (configuration not stated), 10.28%.
Turning to `CN1CCN(c2cc(-c3ccc(F)cc3)nc(-c3ccncc3)n2)CC1`, the Inhibition worked out at 6.21%.
For `Cc1ccc(NC(=O)c2cc(S(=O)(=O)NC(C)(C)C)ccc2C)nc1` the value was 16.31%.
With `Cc1ccc2nc(Cl)c(CNCc3cccs3)cc2c1` the figure was 3.2%.
With `COc1ccc(C2=NN(C3CCCCCC3)C(=O)C2(C)C)cc1OCCCCOc1ccc(-c2nn[nH]n2)cc1` the figure was 4.89%.
On to `COc1cc(OC)cc(C(=O)NCC2Cc3cc(Cl)cc(-c4ccncc4)c3O2)c1` (configuration not stated), for which the Inhibition was determined as 4.47%.
Consider `COc1ccc(-c2nnc3ccc(-c4cccc(C(C)C)c4)cn23)cc1OC`, for which the Inhibition stood at 7.39%.
For `Cc1cc(OCC(=O)Nc2ccc(C(C)C)cc2)n(C)c(=O)c1C#N` the value was 8.56%; for `COC(=O)c1cccc2oc(-c3cccc(OC)c3NC(=O)c3cc(-c4ccccc4)on3)nc12`, 8.15%.
With `O=C(NCCc1ccccc1)c1cc(-c2cccnc2)cnc1NCC1CC1` the figure was -0.54%; with `CC(C)(C)c1cc(C(=O)Nc2cccnc2)cc(C(=O)Nc2cccnc2)c1`, 5.87%; with `Nc1ncnc2c1ncn2C[C@@H](O)[C@@H](O)C(=O)O` [ERITADENINE], 17.98%.
For `c1coc(CNc2nc(N3CCCCC3)nc3ccccc23)c1` the value was 9.51%; for `O=C(N[C@H](Cc1ccccc1)C(=O)Nc1ccccc1N1CCOCC1)c1cccs1`, 9.66%; for `O=C1COCc2ccc(Br)cc2N1Cc1ccc(C(F)(F)F)cc1`, 14.7%.
Turning to `Cl.O[C@@H](c1cc(C(F)(F)F)nc2c(C(F)(F)F)cccc12)[C@H]1CCCCN1`, the Inhibition turned out to be 18.63%.
With `c1ccc(Oc2ccc(-c3cncc(-c4ccc5[nH]ccc5c4)n3)cc2)cc1` the figure was 18.35%; with `COc1cc(C2=NCCN2)ccc1-n1cc(-c2cccc(C3=NCCN3)c2)nn1.O=CO.O=CO`, 8.66%; with `COc1cccc(CC(=O)N2CCC(n3c(C)nc4ccc(F)cc43)CC2)c1`, 12.63%.
With `O=C(c1ccc(NCCO)cc1)C1C[C@H]1c1ccc(Cl)cc1` (some centres not stated) the figure was 3.91%; with `Nc1nc(N)c2c3c(sc2n1)CN(Cc1ccccc1)CC3`, 12.64%.
With `COCC(C)NC(=O)CSc1ncnc2sc(-c3ccccc3)cc12` (configuration not stated), the Inhibition was determined as 12.56%.
With `c1ccc(-c2cc(N3CCCCC3)c3ccccc3n2)nc1` the figure was 13.54%; with `Cc1ccc(NC(=O)c2nc[nH]c2C(=O)Nc2nc3ccccc3[nH]2)c(C)c1`, 12.15%.
With `CCc1nc2ccc(Cl)cn2c1C(=O)NCc1ccc(N2CCC(c3ccc(OC(F)(F)F)cc3)CC2)cc1` [TELACEBEC] the figure was 16.3%; with `COc1ccc(N(CCc2cccc(C)n2)C(=O)C2CCCCC2)cc1`, 10.98%; with `Cc1nnc(NCc2cccc(Cl)c2)c2ccccc12`, 16.77%.
With `COc1cc2ncnc(NC3CCN(Cc4ccccc4)CC3)c2cc1OC` the figure was 7.14%; with `FC(F)(F)c1cc(NCCc2ccccc2)nc(-c2ccccn2)n1`, -8.01%; with `CC(C)(C)n1nc(Cc2ccc(F)c(Cl)c2)c2c(N)ncnc21`, 9.69%.
For the compound `Cc1nc(-c2ccccn2)nc(NCCc2ccc(S(C)(=O)=O)cc2)c1Cl`, the Inhibition was found to be 7.92%.
For `COc1ccc2nc(C)cc(OCC(=O)NCc3ccccc3)c2c1` the value was 16.67%; for `O=C(NC1CC1)c1ccc(N2CCOc3ccc(Cl)cc32)s1`, 13.73%; for `CCc1nc2ccc(C(=O)NCc3ccc4c(c3)OCO4)cn2c1N(C)Cc1cccs1`, 3.23%.
With `CCc1ccccc1-n1c(C)cn2c3c(=O)n(C(C(=O)OC)C(C)C)c(=O)n(C)c3nc12` (configuration not stated) the figure was 11.58%; with `CCc1ccc(S(=O)(=O)Nc2cc(CN3CCN(CCC(C)C)CC3)ccc2C)cc1`, 17.64%; with `COC(=O)c1c(NC(=O)c2cc3ccccc3oc2=O)sc2c1CCN(Cc1ccccc1)C2`, 13.11%.
For the compound `CC(C)(C)n1nc(Cc2cccc3ccccc23)c2c(N)ncnc21`, the Inhibition is listed as 2.58%.
With `COc1ccc(N(CCc2cccc(C)n2)C(C)=O)cc1`, the Inhibition turned out to be 12.62%.
On to `NS(=O)(=O)c1cccc(-c2ccc3ncc(N4CCOCC4)nc3c2)c1`, for which the Inhibition is listed as 13.07%.
For `Cc1[nH]c2cc(F)cc(F)c2c(=O)c1-c1ccc(Oc2ccc(OC(F)(F)F)cc2)cc1` the value was 1.91%; for `CC(C)(C)c1cnc(NC(=O)c2ccccc2O)s1`, 6.92%; for `c1ccc(Oc2ccc(-c3cc(CN4CCOCC4)[nH]n3)cc2)cc1`, 4.64%.
With `CCc1nc2ccccc2n1CC(O)COc1cc(C)ccc1Cl` (configuration not stated) the figure was 5.73%; with `CC(C)(CN)c1nc(-c2ccc(Cl)c(O)c2)c(-c2ccnc(N)n2)[nH]1.O=C(O)C(F)(F)F.O=C(O)C(F)(F)F`, 14.38%; with `CS(=O)(=O)c1ccccc1C(=O)N(Cc1ccccc1)c1ccccc1`, 9.99%.
Regarding `O=C(Nc1cnc2ccccc2c1)c1cccc(-n2cnnn2)c1`, the Inhibition was 7.51%.
On to `Cc1ccc(Oc2ccc(NC(=O)CNc3ccccc3N3CCCC3=O)cc2)cc1`, for which the Inhibition was found to be 6.31%.
For `O=C(Nc1nc(-c2ccccn2)cs1)C1CC1c1ccccc1F` (configuration not stated) the value was 22.08%; for `CCc1ccc([C@@H]2C[C@H](C(F)(F)F)n3ncc(C(=O)NCc4ccc(OC)cc4)c3N2)cc1`, 4.41%.
With `Cc1nc2ccccn2c1C(=O)NCc1ccc(Cl)cc1` the figure was 14.4%; with `Cc1cc(C(=O)Nc2ccc(-c3ccccc3)cc2)no1`, 14.78%.
Take `COc1ccc(CCN2CCC(NCc3cccc(N(C)C)c3)CC2)cc1`: the Inhibition was found to be 14.06%.
For `Cc1ccc2oc(-c3cc(NC(=O)Cc4ccccc4)ccc3Cl)nc2c1`, the Inhibition is recorded as 0.26%.
Take `O=C(C1CCCCC1)N1CC(=O)N2CCc3ccccc3C2C1` (configuration not stated) [PRAZIQUANTEL]: the Inhibition was determined as 8.27%.
Turning to `C[C@]1(O)C[C@@H](c2nc(-c3ccc4ccc(-c5ccccc5)nc4c3)c3c(N)nccn32)C1` [LINSITINIB], the Inhibition stood at 6.6%.
For `CC(C)(C(=O)Nc1ccc(F)cc1)n1cc(-c2ccccc2F)cn1` the value was 14.56%; for `Cc1c[nH]c(CCNC(=O)c2cc(-c3ccc(Cl)cc3)cs2)n1`, 18.02%.
`CC1=Nc2ccc(Cl)cc2C(O)(c2ccc(C)cc2)N1CCN1CCCCC1` (configuration not stated): the Inhibition is on record as 19.99%.
With `CC(C)C(Oc1cccc2ccccc12)C(=O)O` (configuration not stated) the figure was 8.03%; with `CCn1ncc2c(NC3CCOCC3)c(CNC(=O)c3ccnn3C)c(C)nc21`, -3.99%.
As to `CCCn1nnc(NC(=O)COc2ccc(C3CCCCC3)cc2)n1`, the Inhibition stood at 1.58%.
`COc1ccc(C2=NCCN2)cc1-c1cn(-c2cccc(C3=NCCN3)c2)nn1.O=C(O)C(F)(F)F.O=C(O)C(F)(F)F`: the Inhibition is recorded as 14.39%.
`Clc1cccc(CO[C@H]2CCc3ccccc3[C@@H]2n2ccnn2)c1`: the Inhibition turned out to be 4.95%.
For `COc1ccc(C2=NN(C3CCCCCC3)C(=O)[C@@H]3CC=CC[C@H]23)cc1OCCCCOc1ccc(-c2nnn[nH]2)cc1` the value was 5.33%; for `CC1(C)Cc2c(c(N3CCOCC3)nc3snc(Br)c23)CO1`, 12.17%.
With `CCNC(=O)C(C)Nc1nc(-c2cccnc2)nc2sc(C)c(C)c12` (configuration not stated) the figure was 7.51%.
For the compound `CNc1cc(C)nc(C2CN(C(=O)c3n[nH]c4ccccc34)CCO2)c1` (configuration not stated), the Inhibition was determined as 18.72%.
For `Cc1cccc(-c2nc(Nc3ccncn3)c3sccc3n2)n1`, the Inhibition is given as 10.1%.
For `Cc1cc(Nc2ccncc2)n2nc(C)c(-c3ccccc3Cl)c2n1` the value was 18.79%; for `COc1cc(Br)cc2cc(C(=O)Nc3cccc(C(F)(F)F)c3)c(=O)oc12`, 9.72%; for `COC(=O)c1c(NC(=O)c2c(F)c(F)c(F)c(F)c2F)sc2c1CCCCC2`, 11.43%.
For `CCOc1ccc2cc(-c3nn(C(C)(C)C)c(N)c3C(N)=O)cnc2c1.Cl`, the Inhibition was determined as 18.58%.
For `O=C(CCC1CCCCC1)Nc1cccc(-c2nnc(-c3ccco3)o2)c1` the value was 7.09%; for `CC(C)n1ncc2c(C(=O)NCC(c3cccs3)N3CCOCC3)cc(-c3ccccc3)nc21` (configuration not stated), 6.38%; for `Cc1ccc(S(=O)(=O)N2CCN(C(=O)c3cc(-c4ccccc4)n[nH]3)CC2)cc1`, 1.63%.
For `CS(=O)(=O)N1CCC(Cn2nc(Cc3cccc4ccccc34)c3c(N)ncnc32)CC1`, the Inhibition is recorded as 11.58%.
For `CC(C)(C)c1cc(C(=O)N2CCN(c3nccnc3C#N)CC2)n(Cc2ccccc2)n1` the value was 12.51%; for `CN1CCN(S(=O)(=O)c2ccc(-c3ccc4c(Nc5ncc(Cl)cn5)ccnc4c3)cc2)CC1`, 9.93%; for `CC(=O)N1CCc2cc3nc(C)cc(C)c3cc21`, 9.67%.
With `COc1ccc(-c2cnc3ccc(NCc4ccc(S(N)(=O)=O)cc4)nn23)cn1`, the Inhibition came out at 15.51%.
On to `CS(=O)(=O)c1ccc(C(=O)N(CC2CCCO2)c2nc3ccccc3s2)cc1[N+](=O)[O-]` (configuration not stated), for which the Inhibition was 7.08%.
With `O=C(c1cc2ccccc2o1)N1CCN(Cc2ccc3c(c2)OCO3)CC1` the figure was 7.3%.
